In patent US6676946B2 (priority 1997, dated 2004):
Where a sequence shows no end group, the ends are not given.

Assay: general procedure: Fmoc solid-phase peptide synthesis; Wang resin; TBTU
Details: whole synthesis, scale 0.15 mmol

KLFAVWKITYKDT showed an isolated mass of 31 mg.
